Results are given in words; binding and its absence hold for the method and conditions named. Binding seen in cells or lysates may run through a third protein. Here binding means that the protein was enriched with, or labelled near, the bait; the list need not be complete.
Biological target: FLAG-METTL5 (human)
Experiment: affinity purification with mass spectrometry

B1: TRMT112 (protein, UniProt Q9UI30 1-125)
chain: MKLLTHNLLSSHVRGVGSRGFPLRLQATEVRICPVEFNPNFVARMIPKVEWSAFLEAADNLRLIQVPKGPVEGYEENEEFLRTMHHLLLEVEVIEGTLQCPESGRMFPISRGIPNMLLSEEETES
B1 was tested, and the binding was “binds”.
